Assay: general procedure: Fmoc solid-phase peptide synthesis; Rink Amide resin, Rink Amide AM resin LL, Fmoc-Asp-(NovaSyn TGA)-OAll resin; HBTU/DIPEA; PyBOP or HBTU for cyclization
Conditions: conjugation step

| Substance | conjugation yield [%] | final HPLC purity [%] |
| --- | --- | --- |
| Nle-c(DHfRWK)-pyrylium-NODA-GA | 70 | 99 |
| c(RGDfK)-cyanine-NODA-GA | 33 | 99 |
| c(RGDfK)-NODA-GA | 23 | 97 |
| Nle-c(DHfRWK)-cyanine-NODA-GA | 82 | 99 |
| Nle-c(DHfRWK)-dansyl-NODA-GA | 47 | 98 |
| c(RGDfK)-dansyl-NODA-GA | 49 | 99 |
| c(RGDfK)-pyrylium-NODA-GA | 38 | 99 |
| Nle-c(DHfRWK)-NODA-GA | 52 | 98 |
